In all, about 290,000 compounds went through this assay and about 110 (0.038%) were called active. The shares of active, inactive and inconclusive entries below differ from those in the screen. The call rests on the fitted dose curve; in most records, active means well fitted inhibition curve with a large enough effect in the polarisation, with a control signal flat (not every such curve was filed as active); inconclusive means small, poorly fitted or top-dose-only effect, or effect the other way, or a change in a side signal; inactive means no such curve, though single readings can be large or run the other way; the % refers to the polarisation. Where the call is inconclusive, the potency comes from a doubtful curve fit. “Side channel” marks fits to a control or component signal instead of the main read-out.
The compounds below were run against Histone-lysine N-methyltransferase 2A (Homo sapiens) (UniProt Q03164) (assay: qHTS Fluorescence Polarization Assay for Inhibitors of MLL CXXC domain - DNA interaction). Details: MLL-CXXC / FITC-HOXA9 DNA fluorescence polarization; series mostly up to 115 µM.
Summary of the method: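 Fluorescence polarization: 7 uM MLL-CXXC (stock) preincubated 5 min with compounds, then 50 nM fluorescein-HOX-A9 DNA (stock) added; 30 min ambient. Buffer 50 mM Tris-HCl pH 7.5, 50 mM NaCl, 1 mM DTT, 0.05% BSA.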
Potency means the concentration at half of the fitted maximal effect.

By UniProt entry, the sequences of proteins in these tests, tags left out.
UniProt Q03164, whole entry, looked up: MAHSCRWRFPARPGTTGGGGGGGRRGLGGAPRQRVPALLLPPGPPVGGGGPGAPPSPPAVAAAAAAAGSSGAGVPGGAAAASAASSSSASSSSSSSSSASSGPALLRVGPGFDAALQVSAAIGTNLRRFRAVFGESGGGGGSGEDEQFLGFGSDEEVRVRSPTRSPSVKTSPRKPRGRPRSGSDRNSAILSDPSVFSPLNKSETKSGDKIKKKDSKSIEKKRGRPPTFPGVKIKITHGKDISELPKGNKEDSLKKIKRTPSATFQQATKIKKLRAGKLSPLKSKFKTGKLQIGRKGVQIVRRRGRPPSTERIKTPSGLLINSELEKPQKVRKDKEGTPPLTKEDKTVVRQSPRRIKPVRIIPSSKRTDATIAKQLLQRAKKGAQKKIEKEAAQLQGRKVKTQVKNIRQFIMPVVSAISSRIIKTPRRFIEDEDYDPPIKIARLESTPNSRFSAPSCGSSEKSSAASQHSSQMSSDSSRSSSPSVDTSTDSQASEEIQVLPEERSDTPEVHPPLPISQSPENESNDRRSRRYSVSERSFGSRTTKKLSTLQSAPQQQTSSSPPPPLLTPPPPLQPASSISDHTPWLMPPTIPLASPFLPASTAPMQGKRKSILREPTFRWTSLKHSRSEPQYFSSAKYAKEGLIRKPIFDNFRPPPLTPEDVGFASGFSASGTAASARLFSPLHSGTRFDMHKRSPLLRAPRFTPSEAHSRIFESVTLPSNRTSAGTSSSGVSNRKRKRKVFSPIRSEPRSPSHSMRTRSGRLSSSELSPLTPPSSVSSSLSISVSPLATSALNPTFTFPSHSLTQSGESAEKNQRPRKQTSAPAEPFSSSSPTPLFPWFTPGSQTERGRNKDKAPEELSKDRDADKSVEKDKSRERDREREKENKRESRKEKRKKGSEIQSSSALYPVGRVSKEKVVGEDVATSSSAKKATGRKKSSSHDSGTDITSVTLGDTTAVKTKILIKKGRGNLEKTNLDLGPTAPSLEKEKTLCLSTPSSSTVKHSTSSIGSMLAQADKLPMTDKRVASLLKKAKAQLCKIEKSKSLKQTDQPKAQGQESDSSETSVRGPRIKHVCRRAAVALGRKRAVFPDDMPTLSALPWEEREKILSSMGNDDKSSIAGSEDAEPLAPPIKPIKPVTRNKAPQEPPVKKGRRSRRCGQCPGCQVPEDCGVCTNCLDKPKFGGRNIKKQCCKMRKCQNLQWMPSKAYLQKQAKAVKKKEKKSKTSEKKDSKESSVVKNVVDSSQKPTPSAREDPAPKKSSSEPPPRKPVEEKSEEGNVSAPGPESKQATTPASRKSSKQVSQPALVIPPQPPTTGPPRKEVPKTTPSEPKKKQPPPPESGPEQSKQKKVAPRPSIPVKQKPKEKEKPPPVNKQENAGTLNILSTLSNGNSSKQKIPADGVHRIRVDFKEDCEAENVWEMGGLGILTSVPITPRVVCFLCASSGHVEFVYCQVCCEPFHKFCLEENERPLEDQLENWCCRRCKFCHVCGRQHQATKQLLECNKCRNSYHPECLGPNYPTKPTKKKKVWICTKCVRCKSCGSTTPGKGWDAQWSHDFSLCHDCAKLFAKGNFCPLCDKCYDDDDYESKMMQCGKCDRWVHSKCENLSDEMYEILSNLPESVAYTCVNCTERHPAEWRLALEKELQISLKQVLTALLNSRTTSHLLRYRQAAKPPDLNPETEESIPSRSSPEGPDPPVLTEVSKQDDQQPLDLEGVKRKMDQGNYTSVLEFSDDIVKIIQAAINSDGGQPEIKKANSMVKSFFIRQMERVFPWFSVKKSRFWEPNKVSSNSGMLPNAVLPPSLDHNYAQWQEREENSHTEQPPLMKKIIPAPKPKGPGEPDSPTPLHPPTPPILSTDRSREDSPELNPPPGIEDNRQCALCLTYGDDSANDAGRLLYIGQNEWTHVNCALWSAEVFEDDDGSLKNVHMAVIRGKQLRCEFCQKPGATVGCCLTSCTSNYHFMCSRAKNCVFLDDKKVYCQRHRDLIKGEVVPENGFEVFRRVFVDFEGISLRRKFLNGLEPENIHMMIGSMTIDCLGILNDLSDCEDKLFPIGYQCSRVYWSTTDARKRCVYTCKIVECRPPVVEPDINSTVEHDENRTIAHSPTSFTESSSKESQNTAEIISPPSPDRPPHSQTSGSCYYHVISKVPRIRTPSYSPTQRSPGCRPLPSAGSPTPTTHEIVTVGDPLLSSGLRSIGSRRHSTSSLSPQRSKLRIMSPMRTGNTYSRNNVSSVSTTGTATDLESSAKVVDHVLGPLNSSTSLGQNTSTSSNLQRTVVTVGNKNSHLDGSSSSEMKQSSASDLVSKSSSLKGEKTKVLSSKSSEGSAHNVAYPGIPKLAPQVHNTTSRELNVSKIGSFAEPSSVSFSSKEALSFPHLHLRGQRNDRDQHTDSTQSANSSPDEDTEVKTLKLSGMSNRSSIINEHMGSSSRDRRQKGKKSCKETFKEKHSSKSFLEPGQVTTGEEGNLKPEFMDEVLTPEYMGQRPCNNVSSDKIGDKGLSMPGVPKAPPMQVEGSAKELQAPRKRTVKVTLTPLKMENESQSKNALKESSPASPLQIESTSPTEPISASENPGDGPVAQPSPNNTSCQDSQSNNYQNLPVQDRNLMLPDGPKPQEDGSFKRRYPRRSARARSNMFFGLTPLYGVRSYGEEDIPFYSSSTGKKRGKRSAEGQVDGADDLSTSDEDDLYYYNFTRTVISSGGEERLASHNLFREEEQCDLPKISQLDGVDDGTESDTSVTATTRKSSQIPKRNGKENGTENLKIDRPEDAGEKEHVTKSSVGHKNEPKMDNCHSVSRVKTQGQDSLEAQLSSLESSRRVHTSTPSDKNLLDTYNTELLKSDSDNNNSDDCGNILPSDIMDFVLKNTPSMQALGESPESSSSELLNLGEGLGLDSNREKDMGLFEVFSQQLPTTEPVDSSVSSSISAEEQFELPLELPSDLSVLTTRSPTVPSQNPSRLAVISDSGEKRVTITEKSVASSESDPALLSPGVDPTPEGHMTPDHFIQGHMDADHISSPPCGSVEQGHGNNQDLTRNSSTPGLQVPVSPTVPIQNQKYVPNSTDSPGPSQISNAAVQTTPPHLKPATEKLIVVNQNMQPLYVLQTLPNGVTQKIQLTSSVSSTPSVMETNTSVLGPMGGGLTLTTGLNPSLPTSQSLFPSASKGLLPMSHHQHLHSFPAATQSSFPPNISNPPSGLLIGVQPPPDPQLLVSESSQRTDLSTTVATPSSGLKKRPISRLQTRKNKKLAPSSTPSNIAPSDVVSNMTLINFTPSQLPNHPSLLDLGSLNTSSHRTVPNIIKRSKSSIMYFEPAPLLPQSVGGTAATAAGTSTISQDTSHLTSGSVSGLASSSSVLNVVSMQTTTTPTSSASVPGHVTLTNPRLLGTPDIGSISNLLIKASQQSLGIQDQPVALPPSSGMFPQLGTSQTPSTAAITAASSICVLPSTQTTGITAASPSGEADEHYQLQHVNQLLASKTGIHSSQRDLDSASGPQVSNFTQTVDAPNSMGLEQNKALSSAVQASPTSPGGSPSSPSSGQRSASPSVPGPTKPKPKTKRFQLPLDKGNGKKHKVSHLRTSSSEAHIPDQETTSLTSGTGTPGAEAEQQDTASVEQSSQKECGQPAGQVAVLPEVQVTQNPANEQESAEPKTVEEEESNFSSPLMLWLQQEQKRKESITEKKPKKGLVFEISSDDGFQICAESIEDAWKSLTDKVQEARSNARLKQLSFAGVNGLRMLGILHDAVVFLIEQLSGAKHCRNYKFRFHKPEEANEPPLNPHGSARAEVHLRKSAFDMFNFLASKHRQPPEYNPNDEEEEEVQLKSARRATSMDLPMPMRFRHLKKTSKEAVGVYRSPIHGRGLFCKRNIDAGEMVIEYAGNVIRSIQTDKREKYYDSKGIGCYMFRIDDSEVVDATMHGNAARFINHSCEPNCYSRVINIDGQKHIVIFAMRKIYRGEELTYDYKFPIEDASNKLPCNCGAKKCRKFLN

Compound | Potency
O=C(COC(=O)C1CC2CCCC(C1)C2=O)NC(=O)c1ccc(OC(F)F)cc1 (stereo not given) | inconclusive: 12.6 µM [fluorescent, side channel, single point]
CCCCSc1nc2sc3c(c2c(=O)n1-c1ccc(OC)cc1)CCN(C)C3 | inactive
Oc1cccc(/C=N/Nc2ccc(Cl)nn2)c1O | inconclusive: 31.6 µM [quencher, side channel, single point]
NC(=S)Nc1cccc(O)c1 | inconclusive: 10 µM [fluorescent, side channel, single point]
CC1(OC(=O)CCc2ccccc2)C(=O)C=C2C=C(c3ccc(C#N)cc3)N(CCN3CCOCC3)C=C2C1=O (stereo not given) | inconclusive: 10 µM [fluorescent, side channel, single point]
CCOC(=O)C1CCCN(C(=O)c2cc3cc4ccc(OC)cc4nc3o2)C1 (stereo not given) | inactive
CC(C)(C)C(=O)c1sc2nc(-c3cccs3)cc(C(F)(F)F)c2c1N | inconclusive: 15.8 µM [fluorescent, side channel, partial curve]
Cc1ccc2cc3c(N)c(C(=O)N4CC(=O)Nc5ccccc54)sc3nc2c1 | inconclusive: 31.6 µM [fluorescent, side channel, partial curve]
CCCCCn1nc(-c2ccccc2)c2nc3ccccc3nc21 | inconclusive: 31.6 µM [fluorescent, side channel, partial curve]
CCn1c2ccccc2c2cc(NC(=O)Cc3ccc(S(=O)(=O)N4CCOCC4)s3)ccc21 | inconclusive: 89.1 µM [quencher, side channel, single point]
CN1CCN(CCCNC(=O)c2cc3c(=O)n(C)c4ccccc4c3s2)CC1 | inconclusive: 56.2 µM [inhibitor, single point]
COc1c(N)c2ccccc2[nH]c1=O | inactive
CCN(CC)c1ccc2cc(C=O)c(=O)oc2c1 | inconclusive: 8.91 µM [fluorescent, side channel, full curve]
N/C(=N\N=C/c1ccc(F)cc1)N/N=C\c1ccc(F)cc1 | inconclusive: 31.6 µM [quencher, side channel, partial curve]
CC1=C(C(=O)O)N2C(=O)[C@@H](NC(=O)C(N)c3ccccc3)[C@H]2SC1 (stereo not given in full) | inconclusive: 0.0251 µM [fluorescent, side channel, single point]
CC(=O)NC(CCS(C)(=O)=O)C(=O)Nc1ccc(C)c(F)c1 (stereo not given) | inconclusive: 22.4 µM [inhibitor, partial curve]
CC(=O)NN1C(=O)c2ccccc2NC1c1cccc([N+](=O)[O-])c1 (stereo not given) | inconclusive: 8.91 µM [fluorescent, side channel, single point]
O=C(N/N=C/c1cc(Cl)ccc1O)c1ccncc1 | inconclusive: 3.16 µM [quencher, side channel, partial curve]
O=C(Cn1nnc2ccccc2c1=O)Nc1ccc(S(=O)(=O)N2CCOCC2)cc1 | inactive
Nc1nonc1-n1nnc(C(=O)N/N=C/c2ccc(O)cc2)c1COc1ccc(F)cc1 | inactive

Compound | Potency
Cc1ccc(CN2CCN(Cc3c(C)nn(-c4ccc(F)cc4)c3C)CC2CCO)o1 (stereo not given) | inactive
Cc1ccc(C(=O)NCC(=O)OCC(=O)NC2CCS(=O)(=O)C2)cc1C (stereo not given) | inconclusive: 70.8 µM [fluorescent, side channel, single point]
C[n+]1cccc2c(Br)ccc([O-])c21 | inconclusive: 63.1 µM [inhibitor, single point]
Cc1cc(Sc2ncnc(N)c2[N+](=O)[O-])ncn1 | inconclusive: 70.8 µM [inhibitor, single point]
COc1ccc(N=C(C)c2sc3ccccc3c2O)cc1 | inconclusive: 11.2 µM [fluorescent, side channel, partial curve]
CN(C)CCCNCC(=O)c1c(-c2ccccc2)n(C)c2ccccc12 | inconclusive: 31.6 µM [fluorescent, side channel, partial curve]
O=C(O)c1ccc(NC2=C(Cl)C(=O)c3ccccc3C2=O)cc1 | inconclusive: 50.1 µM [inhibitor, single point]
COC(=O)c1ccccc1NC(=O)c1ccc(COc2ccc3c(c2)CCC3)cc1 | inactive
CCc1ccc(N(CC(=O)NC(C)C)C(=O)CCC(=O)Nc2nccs2)cc1 | inconclusive: 63.1 µM [inhibitor, single point]
CCOCCCNC(=O)c1cc2c(=O)n3cccc(C)c3nc2s1 | inconclusive: 1.58 µM [inhibitor, partial curve, poor fit]
c1ccc(-c2cn3nc(-c4ccccc4)c(-c4ccccc4)nc3n2)cc1 | inconclusive: 56.2 µM [fluorescent, side channel, single point]
COc1ccc(Oc2c(C)oc3c(CN4CCOCC4)c(O)ccc3c2=O)cc1 | inactive
CCOc1ccc(C2NC(=O)C(C#N)=C(S)N2c2ccc(OC)cc2)cc1OC (stereo not given) | inconclusive: 31.6 µM [inhibitor, partial curve]
Cc1ccc2[nH]c(=O)c(CN(CCO)C(=O)NCc3ccccc3)cc2c1 | inactive
CCN(CC)c1ccc2cc(NC(=O)CCC(=O)O)c(=O)oc2c1 | inconclusive: 35.5 µM [fluorescent, side channel, partial curve]
O=C(OCc1ccc(Br)cc1)c1ccncc1 | inconclusive: 15.8 µM [inhibitor, single point]
CCCN(CCC)CCCOC(=O)c1ccc(Cl)cc1Cl | inconclusive: 5.01 µM [quencher, side channel, partial curve]
O=C(/C=C/c1ccc(F)cc1)NC(=S)Nc1ccccc1 | inconclusive: 1.41 µM [fluorescent, side channel, full curve, poor fit]
CC1(C)CC(NC(=O)c2c(N)no[n+]2[O-])CC(C)(C)N1 | inconclusive: 11.2 µM [fluorescent, side channel, full curve]
COc1cc2ccccc2cc1C(=O)Nc1ccc(C)cn1 | inconclusive: 25.1 µM [quencher, side channel, partial curve]

Copied from the list.
Under Potency, `COc1ccc(Oc2c(C)oc3c(CN4CCOCC4)c(O)ccc3c2=O)cc1` has the entry inactive
Under Potency, `O=C(O)c1ccc(NC2=C(Cl)C(=O)c3ccccc3C2=O)cc1` has the entry inconclusive: 50.1 µM [inhibitor, single point]
Under Potency, `Cc1ccc(C(=O)NCC(=O)OCC(=O)NC2CCS(=O)(=O)C2)cc1C` (stereo not given) has the entry inconclusive: 70.8 µM [fluorescent, side channel, single point]
